Assay results taken from PubChem BioAssay AID493014 (National Center for Advancing Translational Sciences (NCATS), 2011).
Among all 340,000 compounds or so, about 170 (0.05%) were called active. The shares of active, inactive and inconclusive entries below differ from those in the screen. Calls come from the whole dose curve; as a rule, active = well fitted inhibition curve with a large enough effect in the signal ratio, with a control signal flat (not every such curve was filed as active); inconclusive = small, poorly fitted or top-dose-only effect, or effect the other way, or a change in a side signal; inactive = flat fitted curve, though single readings scatter; the % refers to the signal ratio. Potencies beside an inconclusive call are fits to weak or partial responses and may not hold up.

assay: qHTS Assay to Find Inhibitors of Chronic Active B-Cell Receptor Signaling; settings: ABC-DLBCL IkBa-CBG/CBR reporter, luminescence ratio (green luciferase fused to IkBa over red control in TMD8 lymphoma cells), 4 h; activity change, negative = inhibition: at 46.1 µM (top of the series);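 for activity change, negative = inhibition: plate controls were basal doxycycline-induced cells for no effect and cells given 10 µM MG132 for full effect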
Summary of the method: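 Cell line TMD8 (human ABC DLBCL), stably expressing tet-inducible CBG68-IkBa fusion and CBR; IMDM/0.5% FBS; cpd up to 46 uM; dox induction, 4 h, 37C/5% CO2; dual luminescence; green/red ratio; MG132 control.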
Potency is the fitted concentration of half-maximal effect.

| Structure (SMILES) | activity change, negative = inhibition | Potency |
| --- | --- | --- |
| CCOc1ccc(NC(=O)C(C)Oc2ccc(C#N)cc2)cc1S(=O)(=O)N1CCCC1 (configuration not stated) | inconclusive: -1.56% | – |
| COc1cccc(NC(=S)N(CCc2c(C)[nH]c3ccc(C)cc23)Cc2cccs2)c1 | inactive | – |
| C/C(=N/NC(=O)c1ccoc1C)c1cccc(NC(=O)C(F)(F)F)c1 | – | inconclusive: 18.4 µM [falling, partial curve] |
| Cn1c(N2CCN(C(c3ccccc3)c3ccccc3)CC2)nc2ccccc21 | inactive | – |
| O=C(Nc1ccccc1F)c1ccc(Cn2cc(Cl)cn2)cc1 | – | inconclusive: 7.94 µM [falling, partial curve] |
| Cn1ccc2cc(-c3ccc4ncnc(NCc5cccnc5)c4c3)ccc21 | inactive | – |
| CC(C)N(C(=O)COC(=O)c1ccccc1C(=O)c1ccc(Cl)c([N+](=O)[O-])c1)C(C)C | inconclusive: -12.9% | – |
| CC(C)(C)N1C(=O)c2ccc(C(=O)Nc3cc(C(=O)O)cc(C(=O)O)c3)cc2C1=O | inconclusive: -1.9% | – |
| COc1ccc(Br)c(C(=O)Nc2nc3ccccc3[nH]2)c1 | – | inconclusive: 4.47 µM [falling, partial curve, poor fit] |
| C[C@@]12CC(=O)NC1N(C(=O)c1cccc(C(F)(F)F)c1)C(c1ccccc1OC(=O)c1cccc(C(F)(F)F)c1)C2 (some centres not stated) | inconclusive: 2.63% | – |
| CCOc1ccc(-c2csc(NC(=O)CSCC(=O)O)n2)c2ccccc12 | inconclusive: 48.2% | – |
| CCc1c(C)nc2cc(-c3ccc(OC)cc3)[nH]n2c1=O | inactive | – |
| Cc1cccc(C(=O)NCCCN2CCCC2=O)c1 | inconclusive: -1.71% | – |
| O=C1C(C2=C(O)c3ccccc3C2=O)=Nc2ccccc21 | inactive | – |
| O=C(OCc1ccc(F)cc1)c1ccc2ccccc2n1 | inconclusive: 8.63% | – |
| Cc1nn(C)c(=O)n1-c1ccccc1 | inconclusive: 3.58% | – |
| CC(NC(=O)c1cc(COc2c(F)cccc2F)on1)c1cnn(-c2ccccc2)c1 (configuration not stated) | inconclusive: -14.5% | – |
| O=S(=O)(c1ccc2nc(COc3ccc(Cl)cc3Cl)[nH]c2c1)N1CCOCC1 | – | inconclusive: 15.8 µM [falling, partial curve, poor fit] |
| Cc1c(N2C(=O)/C(=C\c3ccccc3O)SC2=S)c(=O)n(-c2ccccc2)n1C | inconclusive: 2.65% | – |
| O=C(O)CSc1cc(C(=O)c2ccccc2O)cn2c(=O)c3c4c(sc3nc12)CCCC4 | inconclusive: 4.36% | – |
| N#Cc1cn(-c2ccccc2)nc1-c1ccc2c(c1)OCCO2 | inconclusive: 12% | – |
| Fc1ccc(Cn2nnnc2C(c2cccs2)N2CCCCCC2)cc1 (configuration not stated) | inconclusive: 6.61% | – |

Whole records as entered above. Order of values: activity change, negative = inhibition	Potency
Cn1c(N2CCN(C(c3ccccc3)c3ccccc3)CC2)nc2ccccc21 is listed as inactive	–
CCOc1ccc(-c2csc(NC(=O)CSCC(=O)O)n2)c2ccccc12 is listed as inconclusive: 48.2%	–
